# Source: PubChem BioAssay AID1671190 (National Center for Advancing Translational Sciences (NCATS), 2021)
# Chains of the proteins cited; added tags and fusions are not shown. Lines headed by an entry give the natural chain unless they say otherwise; changes in a name come on top.
# UniProt P18054: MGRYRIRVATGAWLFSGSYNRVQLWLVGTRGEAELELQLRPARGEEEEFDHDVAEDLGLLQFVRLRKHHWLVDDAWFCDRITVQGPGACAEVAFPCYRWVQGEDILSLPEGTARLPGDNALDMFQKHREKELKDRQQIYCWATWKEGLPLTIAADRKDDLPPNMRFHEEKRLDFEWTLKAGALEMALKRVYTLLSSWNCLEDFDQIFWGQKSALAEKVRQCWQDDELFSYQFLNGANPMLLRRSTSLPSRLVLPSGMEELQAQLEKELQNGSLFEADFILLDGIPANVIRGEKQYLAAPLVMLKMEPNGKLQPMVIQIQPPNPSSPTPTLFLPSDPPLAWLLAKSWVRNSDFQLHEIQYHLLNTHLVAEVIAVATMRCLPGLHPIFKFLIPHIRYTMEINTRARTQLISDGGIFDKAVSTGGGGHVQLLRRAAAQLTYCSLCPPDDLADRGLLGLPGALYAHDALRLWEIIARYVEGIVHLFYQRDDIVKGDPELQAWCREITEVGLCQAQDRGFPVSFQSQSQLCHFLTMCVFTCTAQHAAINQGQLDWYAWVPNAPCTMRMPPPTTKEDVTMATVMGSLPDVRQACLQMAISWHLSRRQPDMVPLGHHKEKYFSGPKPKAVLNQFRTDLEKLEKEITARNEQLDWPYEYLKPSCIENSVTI
# Values joined by “and” are separate entries in the source; they are usually repeats but may differ in a detail not shown here. Equal values may be shown once. In all, about 580,000 compounds went through this assay and about 6,100 (1.1%) were called active. Inconclusive results, whose numbers are uncertain, are shown with a selection of clear calls. Calls come from the whole dose curve; as a rule, active = well fitted inhibition curve with a large enough effect; inconclusive = small, poorly fitted or top-dose-only effect, or another doubt; inactive = no such curve, though single readings can be large or run the other way. A potency beside an inconclusive call is a rough fit, not a confirmed value.
# Target: Polyunsaturated fatty acid lipoxygenase ALOX12 (Homo sapiens) (UniProt P18054)
# Experiment: Primary qHTS assay for inhibitors of human arachidonate 12S-lipoxygenase (ALOX12): Round 2
# Details: purified 12hLO, xylenol orange hydroperoxide absorbance; activity change, negative = inhibition: at 108 µM (top of the series) unless noted
# Summary of the method: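 Purified human 12hLO at 150 nM in 25 mM Hepes, 0.01% Triton X-100, pH 7.0, preincubated 15 min at room temperature with compound. Reaction started with 40 uM arachidonic acid, 30 min at room temperature. Hydroperoxide measured by Fe-xylenol orange, 573/405 nm absorbance ratio.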
# % is set by controls: 0 for no effect and ±100 for the full control effect; potency is the fitted concentration of half-maximal effect.
SMILES,Potency,"activity change, negative = inhibition"
Cc1ccc(NC(=O)c2sc(=S)n(-c3cc(C)ccc3F)c2N)cc1,"inconclusive: 35.5 µM [inhibitor, partial curve]",–
Cc1ccc(NC(=O)c2cccc(Oc3ccc([N+](=O)[O-])cc3)c2)c(C(=O)O)c1,"inconclusive: 112 µM [inhibitor, single point]",–
C=CCOc1ccc(/C=C\c2nc(O)c([N+](=O)[O-])c(=O)[nH]2)cc1OCC,"inconclusive: 28.2 µM [inhibitor, partial curve, poor fit]",–
CCC1CCCCN1CCCNC(=O)c1c(O)nc2c(C)cccn2c1=O (configuration not stated),"inconclusive: 0.199 µM [inhibitor, full curve, poor fit]",–
O=C(c1ccc(N2CC[C@H](O)C2)nc1)N1CCC(Oc2cccnc2)CC1,inactive,–
Fc1ccc(Cn2nnnc2CN2CCc3ccccc3C2)cc1,"inconclusive: 11.2 µM [inhibitor, full curve, poor fit]",–
O=C(CCCc1nc(-c2ccc(Cl)cc2)no1)NC1CCCC1,inactive,–
NC(=O)c1nsc(C(=O)N(c2ccccc2)C(C(=O)NC2CCCCC2)c2ccc(O)cc2)c1N (configuration not stated),"inconclusive: 50.1 µM [inhibitor, partial curve, poor fit]",–
Cc1ccc(-n2c(-c3nn(C)c(C)c3Cl)n[nH]c2=S)cc1,active: 31.6 µM,–
COc1cc(-c2cc(C(=O)NCc3ccco3)c3ccccc3n2)cc(OC)c1OC,"inconclusive: 112 µM [inhibitor, single point]",–
c1ccc(-c2ccc3[nH]ccc3c2)cc1,"inconclusive: 70.8 µM [inhibitor, partial curve, poor fit]",–
CCN(CC)CCN(C(=O)c1ccc2ccccc2c1)c1nc2ccc(F)cc2s1,"inconclusive: 100 µM [inhibitor, single point]",–
Cn1c(=O)[nH]c(=O)c2c1nc(SCC(=O)c1ccccc1)n2Cc1ccccc1,inactive,–
COc1ccc(C(=O)Nc2ccc(N3CCN(Cc4ccccc4)CC3)cc2)cc1,inactive,–
CC(C)(C)OC(=O)NCCCC[C@@H](C(=O)N1CCN(C(=O)OC(C)(C)C)CC1)n1cc(CCC(=O)O)nn1,"inconclusive: 89.1 µM [inhibitor, single point]",–
O=C(CCc1nc2ccccc2[nH]1)NC1CCCCC1,"inconclusive: 17.8 µM [inhibitor, partial curve, poor fit]",–
CCN(C(=O)c1csc(-c2ccco2)n1)C1CC1,"inconclusive: 39.8 µM [inhibitor, full curve, poor fit]",–
COc1ccc(C(=O)/C(C#N)=C\c2ccccc2I)cc1,"inconclusive: 12.6 µM [inhibitor, full curve]",–
Cc1n[nH]c(C)c1N1C(=O)c2cccc3c(Br)ccc(c23)C1=O,inactive,–
O=C(NC1CCCCC1)c1c[nH]c2ccc(S(=O)(=O)Nc3ccccc3F)cc2c1=O,"inconclusive: 50.1 µM [inhibitor, partial curve, poor fit]",–
CC(C)(C)c1ccc(C(=O)NC(Cc2c[nH]c3ccccc23)C(=O)OCC(=O)c2ccccc2)cc1 (configuration not stated),"inconclusive: 89.1 µM [inhibitor, partial curve, poor fit]",–
COc1cc(NS(=O)(=O)c2ccc(N/C=C(\C=O)c3nc4cc(Cl)ccc4o3)cc2)nc(OC)n1,active: 22.4 µM,–
O=C(c1ccc(Cl)cc1)N1C[C@@H](F)[C@@H](OCc2nc3ccccc3[nH]2)C1,"inconclusive: 31.6 µM [inhibitor, full curve, poor fit]",–

SMILES,Potency,"activity change, negative = inhibition"
CC(=O)Nc1ccc(C(=O)Nc2cnc3ccccc3c2)cc1,"inconclusive: 126 µM [inhibitor, single point]",–
Cc1cccc(NC(=S)N/C(=N/S(=O)(=O)c2ccccc2)c2ccccc2)c1,"inconclusive: 8.91 µM [inhibitor, full curve, poor fit] and inconclusive: 39.8 µM [inhibitor, partial curve, poor fit]",–
CC(C)NC(=O)C(C#N)(Cc1ccc(C#N)cc1)Cc1ccc(C#N)cc1,inactive,–
O=C(c1ccccn1)N1C[C@@H]2C[C@H](C1)c1ccc(NS(=O)(=O)c3cccc(F)c3)c(=O)n1C2,"inconclusive: 4.47 µM [inhibitor, full curve, poor fit]",–
Cn1c(=O)c2c(ncn2CC(=O)Nc2nc(-c3ccc(C4CCCCC4)cc3)cs2)n(C)c1=O,"inconclusive: 89.1 µM [inhibitor, single point]",–
CC(=O)N1CCC2(CC1)CCN(c1cccc(-c3ccccc3)c1)CC2,"inconclusive: 31.6 µM [inhibitor, single point]",–
COC(=O)[C@@]12C[C@@H](CC(=O)N3CCN(C(=O)c4ccco4)CC3)C(=O)N(Cc3ccc4c(c3)OCO4)C1=CCC(C)(C)C2,inactive,–
COc1ccc(C(=O)C2CCCN(C/C=C/c3ccccc3OC)C2)c(OC)c1 (configuration not stated),"inconclusive: 89.1 µM [inhibitor, single point]",–
COc1ccc(Cn2nnnc2C(C(C)C)N(Cc2ccco2)Cc2cccs2)cc1 (configuration not stated),inactive,–
COc1ccc(C2/C(=C(\O)c3ccc(F)cc3)C(=O)C(=O)N2c2cc(C)on2)cc1OC (configuration not stated),"inconclusive: 6.31 µM [inhibitor, full curve]",–
O=C(NS(=O)(=O)c1ccc2ccc(S(=O)(=O)NCCSc3ccccc3)cc2c1)c1cccc2ccccc12,"inconclusive: 44.7 µM [inhibitor, partial curve, poor fit]",–
CCCn1c(SCC(=O)NCCc2ccccc2)nnc1-c1ccccn1,inactive,–
N#Cc1nccnc1N1CCN(C(=O)Nc2ccccc2)CC1,"inconclusive: 89.1 µM [inhibitor, single point]",–
COc1ccc(Nc2cc(C)nc3ncnn23)c(OC)c1,inactive,–
c1ccc(-c2ccc(CNCc3ccncc3)o2)cc1,"inconclusive: 12.6 µM [inhibitor, partial curve, poor fit]",–
COc1ccc(CCNc2c(C)c(C)nc3ncnn23)cc1,inactive,–
CCOc1ccccc1N1C(=O)CC(Sc2ncccc2C(=O)O)C1=O (configuration not stated),"inconclusive: 2.82 µM [inhibitor, partial curve, poor fit]",–
COC(=O)c1cc(S(=O)(=O)N(C)CC(=O)N2CCN(c3ccc(Cl)cc3)CC2)cn1C,inactive,–
Cc1cccc(OCC(=O)N(Cc2ccccc2)c2c(N)n(Cc3ccccc3)c(=O)[nH]c2=O)c1,inactive,–
O=C(Nc1cccc(-c2nc3ncccc3o2)c1)c1ccc2c(c1)OCO2,inactive,–
Fc1cc(F)cc(Cc2nc3nccc(-c4ccsc4)n3n2)c1,inactive,–
CCc1c(C)sc(NC(=O)CCc2ccccc2)c1C#N,"inconclusive: 31.6 µM [inhibitor, full curve, poor fit]",–
CCOC(=O)C1(Cc2cccc(OC)c2)CCCN(Cc2cc(C(C)C)n[nH]2)C1 (configuration not stated),"inconclusive: 28.2 µM [inhibitor, single point]",–

SMILES,Potency,"activity change, negative = inhibition"
CCOCC(=O)Nc1ncc(S(=O)(=O)c2ccc([N+](=O)[O-])cc2)s1,"inconclusive: 15.8 µM [inhibitor, partial curve, poor fit]",–
COc1ccc(-c2cn(-c3ccc(OC)cc3)c3[n+]2-c2ccccc2CC3)cc1,–,inconclusive: -40.2% [inhibitor]
O=S(=O)([O-])CCC[n+]1c(SCCCS(=O)(=O)O)sc2ccc(Cl)cc21,inactive,–
COc1ccc(C2OCC3(O)C(c4ccc(OC)c(OC)c4)OCC23)cc1OC (configuration not stated),"inconclusive: 79.4 µM [inhibitor, partial curve, poor fit]",–
CCOC(=O)c1c(/N=C/c2ccccc2O)sc2c1CCC2,"inconclusive: 35.5 µM [inhibitor, partial curve, poor fit]",–
Cc1csc(-c2nc3ccccc3n2C(C)c2nc3ccccc3[nH]2)c1 (configuration not stated),inactive,–
CCCCNC(=O)c1cc2n(n1)CC(c1ccc3c(c1)OCO3)OC2 (configuration not stated),"inconclusive: 89.1 µM [inhibitor, partial curve, poor fit]",–
CC(=O)N1CC2(CCCN(C3CCCCC3)C2)Cc2ccccc21 (configuration not stated),"inconclusive: 44.7 µM [inhibitor, full curve]",–
Cc1oc(-c2cccs2)nc1CC(=O)Nc1ccccc1O,inactive,–
NC(=O)Cn1c(=O)n(Cc2ccco2)c(=O)c2c3c(sc21)CCCCC3,"inconclusive: 20 µM [inhibitor, full curve]",–
COC(=O)c1sc(S(=O)(=O)NC(C)C(=O)O)c(C(=O)OC)c1C (configuration not stated),"inconclusive: 12.6 µM [inhibitor, partial curve, poor fit]",–
O=C(OCc1ccc(Cl)cc1Cl)c1ccc(O)cc1,"inconclusive: 79.4 µM [inhibitor, partial curve, poor fit]",–
O=C(CN1C(=O)C2CCCCC2C1=O)Nc1nc(-c2ccccn2)cs1 (configuration not stated),inactive,–
CCOc1cc(=O)n2c(c1C(=O)Nc1ccc(F)c(Cl)c1)CCCC2,"inconclusive: 22.4 µM [inhibitor, full curve, poor fit]",–
CCn1ncc(N2CCC(NC(=O)CC3CCCC3)CC2)cc1=O,inactive,–
Cc1ccc(C2Cn3nnc(-c4noc(CCc5ccccc5)n4)c3CO2)cc1 (configuration not stated),inactive,–
CCC1CN(C(=O)N2CCC(C(=O)NCCC3=CCCCC3)CC2)c2cc(C)ccc2O1 (configuration not stated),inactive,–
O=CNNC(=S)NCc1ccccc1,inactive,–
N#Cc1cccc(COC(=O)CCC(=O)c2ccc3c(c2)OCCCO3)c1,inactive,–
O=C1C=C(Nc2cccnc2)c2ccccc2C1=O,"inconclusive: 50.1 µM [inhibitor, partial curve, poor fit]",–
O=C(O)CC(c1ccccc1)c1ccc2c(c1)OCO2 (configuration not stated),inactive,–

# Part of the list above, tab-delimited.
SMILES	Potency	activity change, negative = inhibition
CCCCNC(=O)c1cc2n(n1)CC(c1ccc3c(c1)OCO3)OC2 (configuration not stated)	inconclusive: 89.1 µM [inhibitor, partial curve, poor fit]	–
CC(=O)N1CC2(CCCN(C3CCCCC3)C2)Cc2ccccc21 (configuration not stated)	inconclusive: 44.7 µM [inhibitor, full curve]	–
Cc1oc(-c2cccs2)nc1CC(=O)Nc1ccccc1O	inactive	–
